From PubChem BioAssay AID2685 (National Center for Advancing Translational Sciences (NCATS), 2010)
The other results are listed elsewhere or left out. Shown are side measurements of this screen, not its main read-out; they come without a call. The list favours compounds with an active or inconclusive main result. The note in brackets gives the kind of curve behind each potency; many fits are weak.

Experiment: qHTS Assay for Lipid Storage Modulators in Drosophila S3 Cells;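 as to cell number change: cells counted by Cell Tracker Red CMTPX staining in the red channel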
Details: BODIPY lipid droplet fluorescence, 18-24 h; for cell number change: measured here: cell count max response, cells fed with added oleic acid
In short: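 Drosophila S3 cells got compounds at several concentrations plus oleic acid (400 uM solution). Laser-scanning cytometry with 488 nm excitation read lipid droplets at 500-530 nm and cells at 575-640 nm. Percent activity was relative to 20 uM Triacsin C.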

[1] = measured here: lipid fluorescence (Fed channel) AC50, cells fed with added oleic acid
[2] = measured here: cell number channel AC50, cells fed with added oleic acid

| Structure (SMILES) | cell number change [%] | AC50 [1] | AC50 [2] |
| --- | --- | --- | --- |
| O=C(CN1N=C(c2ccccc2)CCC1=O)NCCN1CCc2ccccc2C1 | -13 | 7.31 µM [rising, partial curve, poor fit] | – |
| O=C(NCc1ccccc1)c1cccc(NC(=O)c2ccco2)c1 | 11.7 | – | – |
| Cn1nc(-c2ccccc2)c(CO)c1Sc1ccccc1 | 6.57 | 6.51 µM [rising, single point] | – |
| Cc1nn(-c2ccccc2)c(Cl)c1/C=N/NC(=O)c1ccco1 | 2.01 | 0.00517 µM [rising, full curve, poor fit] | – |
| CCOc1ccc(NC(=O)CC2C(=O)N(c3ccc(OC)cc3)C(=O)N2CCc2cccs2)cc1 (centres undefined) | – | 1.64 µM [rising, full curve] | – |
| Cc1c(Cl)c([N+](=O)[O-])nn1CCCC(=O)O | -27.7 | 0.0651 µM [falling, full curve, poor fit] | 0.164 µM [falling, full curve, poor fit] |
| CCOc1ccc(S(=O)(=O)N(C)c2ccc(OCC(=O)Nc3ccccc3F)cc2)cc1 | 1.58 | 0.00461 µM [falling, full curve, poor fit] | – |
| COc1cccc(CC(=O)N2CCC(n3nccc3NC(=O)C3CC3)CC2)c1 | 2.6 | – | – |
| CCOC(=O)c1cnc(SCC(=O)Nc2cc(OC)ccc2OC)nc1N | 7.1 | – | – |
| COc1ccc(OCC(=O)Nc2ccc3c(c2)CCC3)cc1 | -0.0735 | 6.51 µM [falling, single point] | – |
| COC(=O)CSc1nnc2c(C)cc3cc4c(cc3n12)OCCO4 | -1.94 | 5.17 µM [rising, single point] | – |
| Cc1ccc(-c2cc(C(=O)N3CCC(C)CC3)c3ccccc3n2)cc1 | -31.7 | – | 0.231 µM [falling, full curve, poor fit] |
| COc1ccc(/C=C2\Sc3ccc(C(=O)NCCN4CCCCCC4)cc3N(C)C2=O)cc1 | 12.2 | 2.31 µM [rising, full curve] | – |
| Cc1cc(C)c(-n2[nH]nnc2=S)c(C)c1 | – | 0.092 µM [falling, full curve, poor fit] | 0.13 µM [falling, full curve, poor fit] |
| CCN(CC)S(=O)(=O)c1ccc2oc(SCC3CN=C(c4ccc(OC)cc4)S3)nc2c1 (centres undefined) | -9.44 | 29.1 µM [rising, single point] | – |
| NC(=O)/C=C\C(=O)Nc1cccc(C(F)(F)F)c1 | 26.4 | 29.1 µM [rising, single point] | – |
| O=[N+]([O-])c1ccc(NC(=S)NCc2ccc(F)cc2)cc1 | -61.8 | 10.3 µM [falling, partial curve] | 13 µM [falling, partial curve] |
| COc1ccc(C2CC(=O)C=C(NCC3CCCO3)C2)cc1 (centres undefined) | 9 | 0.103 µM [rising, single point] | – |
| COc1ccc(NC(=O)C2(S(=O)(=O)c3ccc(C)cc3)CC2)cc1OC | 6.67 | 6.51 µM [rising, single point] | – |
| COc1ccccc1-c1nnc(NC(=O)c2ccccc2F)o1 | -6.78 | 0.731 µM [falling, full curve, poor fit] | – |

As entered above.
Entry of `CCN(CC)S(=O)(=O)c1ccc2oc(SCC3CN=C(c4ccc(OC)cc4)S3)nc2c1` (centres undefined) under AC50 [1]: 29.1 µM [rising, single point]
Entry of `COc1cccc(CC(=O)N2CCC(n3nccc3NC(=O)C3CC3)CC2)c1` under cell number change [%]: 2.6
Entry of `Cc1ccc(-c2cc(C(=O)N3CCC(C)CC3)c3ccccc3n2)cc1` under AC50 [2]: 0.231 µM [falling, full curve, poor fit]
Entry of `Cc1nn(-c2ccccc2)c(Cl)c1/C=N/NC(=O)c1ccco1` under AC50 [1]: 0.00517 µM [rising, full curve, poor fit]
Entry of `CCOc1ccc(S(=O)(=O)N(C)c2ccc(OCC(=O)Nc3ccccc3F)cc2)cc1` under AC50 [1]: 0.00461 µM [falling, full curve, poor fit]

Following part.

| Structure (SMILES) | cell number change [%] | AC50 [1] | AC50 [2] |
| --- | --- | --- | --- |
| COc1ccc(NC(=O)CN(C)CC(=O)c2[nH]c(C)c(C(C)=O)c2C)cc1 | -48.1 | 6.51 µM [falling, partial curve] | 7.31 µM [falling, partial curve] |
| CCn1c(=O)n(CC(=O)NCc2ccccc2OC)c(=O)c2ccccc21 | – | 0.116 µM [falling, full curve, poor fit] | – |
| COc1cc(NC(=O)c2ccc(Cl)cc2)c(OC)cc1NC(=O)CN1CCCCC1 | 23.7 | – | – |
| CCOC(=O)CSc1ccc2nnc(-c3cccnc3)n2n1 | 9.41 | 0.13 µM [falling, full curve, poor fit] | – |
| COc1cc(NC(=O)c2nccnc2N)cc(C(=O)Nc2cccc(C(F)(F)F)c2)c1 | -9.66 | 0.411 µM [falling, single point] | – |
| CC1Cc2ccccc2N1S(=O)(=O)c1cccc(C(=O)NCC(c2ccco2)N2CCCC2)c1 (centres undefined) | 76 | – | 29.1 µM [rising, single point] |
| Cc1cc(C)nc(N/N=C/C2=C(N3CCOCC3)C(=C/c3ccccc3)/CC2)n1 | 22.3 | 10.3 µM [falling, partial curve] | 0.00411 µM [rising, full curve, poor fit] |
| CN(C)c1ccc(C(CNS(=O)(=O)c2ccc3ccccc3c2)c2c[nH]c3ccccc23)cc1 (centres undefined) | -3.48 | 4.61 µM [falling, single point] | – |
| O=C(Nc1nc2ccccc2n1CCN1CCCCC1)c1ccco1 | 11.9 | 0.13 µM [falling, full curve, poor fit] | – |
| N#CCSc1ncnc2ccccc12 | 8.45 | – | – |
| Cc1ccc(S(=O)(=O)CC(=O)Nc2nnc(C)s2)cc1 | 5.42 | 0.164 µM [rising, full curve, poor fit] | – |
| CN1CCN(C2=Cc3ccc(Cl)cc3Sc3ccc(F)cc32)CC1 | -82.9 | 16.4 µM [falling, partial curve] | 16.4 µM [falling, partial curve] |
| COc1cc(Cl)c(CN2CCCC(CO)(Cc3ccccc3)C2)cc1OC (centres undefined) | -9.12 | – | – |
| CCCCC(=O)N/N=C/c1ccc(N2CCOCC2)c([N+](=O)[O-])c1 | 19.4 | 10.3 µM [rising, single point] | – |
| Cc1ccc(C)c(N2CCN(C(=O)C3CCN(S(=O)(=O)c4cccc5nsnc45)CC3)CC2)c1 | -7.47 | 1.64 µM [falling, partial curve] | – |
| O=C(N/N=C/c1cc([N+](=O)[O-])ccc1Cl)c1cc(-c2ccccc2)nc2ccccc12 | – | 0.103 µM [rising, full curve, poor fit] | – |
| COc1ccc(NC(=O)COC(=O)c2ccc(-n3nc(C)cc3C)cc2)cc1OC | -9.73 | 11.6 µM [rising, partial curve, poor fit] | – |
| CC1CCCCC1NC(=O)COCc1cc(-c2cccs2)on1 (centres undefined) | -39.9 | 29.1 µM [falling, single point] | 0.0651 µM [falling, full curve, poor fit] |
| O=C(NCc1ccco1)C1Cc2cc(Cl)ccc2O1 (centres undefined) | 16.7 | 29.1 µM [rising, single point] | – |
| CN(C(=O)CN1CCCCCC1)c1c(N)n(Cc2ccccc2)c(=O)[nH]c1=O | – | 29.1 µM [rising, single point] | – |

| Structure (SMILES) | cell number change [%] | AC50 [1] | AC50 [2] |
| --- | --- | --- | --- |
| O=[N+]([O-])c1ccccc1S(=O)(=O)Nc1ccc(S(=O)(=O)Nc2nccs2)cc1 | 28.9 | – | – |
| CCc1ccc(/C=c2\s/c(=C\C(=O)C(C)(C)C)[nH]c2=O)cc1 | -91.9 | – | 13 µM [falling, partial curve] |
| O=C1CCCCCN1CP(=O)(O)CN1CCCCCC1=O | -23.6 | 3.26 µM [falling, full curve] | – |
| O=C1NCC2=C1C(c1ccccc1)Nc1ccccc1N2 (centres undefined) | -24 | 4.61 µM [falling, full curve, poor fit] | – |
| CCOC(=O)C1=C(c2ccccc2)O/C(=C(/C#N)C(F)(F)F)S1 | 3.57 | 2.59 µM [rising, partial curve] | – |
| NC(=O)c1cc(S(=O)(=O)NCCc2ccc(S(N)(=O)=O)cc2)cs1 | 9.85 | 6.51 µM [rising, full curve, poor fit] | – |
| N/C(=N/OC(=O)c1ccccc1Cl)c1ncc([N+](=O)[O-])s1 | -32.8 | – | 29.1 µM [falling, single point] |
| CN(C1(C)CCS(=O)(=O)C1)S(=O)(=O)c1ccc2ccccc2c1 (centres undefined) | -0.98 | – | 0.082 µM [falling, full curve, poor fit] |
| Cc1ccc(C(=O)CSc2nnc(CNc3nc(-c4ccccc4)cs3)n2C)cc1 | -7.13 | 6.51 µM [rising, partial curve] | – |
| CC(/C=N/NC(=O)c1cnccn1)=C\c1ccco1 | 31.1 | – | 25.9 µM [rising, single point] |
| C/C(CC(=O)NC1CCCCC1)=N\NC(=O)c1ccccn1 | -5.51 | 0.092 µM [falling, full curve, poor fit] | 0.231 µM [falling, full curve, poor fit] |
| CC(C)(C)c1ccc(OCCN2CCCC2)cc1 | -2.91 | 0.731 µM [falling, full curve] | – |
| NC(=O)C1CCN(C(=O)C2CCC(=O)N(C3CCCCCC3)C2)CC1 (centres undefined) | 21.5 | 14.6 µM [rising, partial curve, poor fit] | – |
| COc1ccc(CCN(C)C2CCCN(C(=O)c3ccnn3C)C2)cc1OC (centres undefined) | 1.72 | – | – |
| Cn1nnnc1SCCNCc1ccccc1F | -15.3 | 0.103 µM [falling, full curve, poor fit] | – |
| CCn1c(SCc2nc3ccccc3c(=O)[nH]2)nnc1-c1cccnc1 | – | 0.58 µM [rising, full curve] | – |
| c1cnc2c(OCc3nc4ccccc4[nH]3)cccc2c1 | – | 0.58 µM [rising, single point] | 0.58 µM [rising, single point] |
| CN=c1scc(-c2ccc(OC)cc2)n1/N=C(\C)c1cccnc1 | -18.5 | 29.1 µM [falling, single point] | 0.58 µM [rising, partial curve, poor fit] |
| O=c1ccc2cc(S(=O)(=O)NCc3ccccc3)ccc2[nH]1 | -14.7 | – | – |
| CCCC(NC(=O)COc1cc2c(c3oc(=O)cc(C)c13)CCC(C)(C)O2)C(=O)O (centres undefined) | 51.4 | – | 16.4 µM [rising, partial curve] |
